Results: paper doi:10.1101/2025.05.06.652320

Protein sequences, listed by entry. Tags and fused reporters are not part of them. Lines headed by an entry give the natural chain unless they say otherwise; changes in a name come on top.
UniProt P0DTD2, whole entry, stated change not applied: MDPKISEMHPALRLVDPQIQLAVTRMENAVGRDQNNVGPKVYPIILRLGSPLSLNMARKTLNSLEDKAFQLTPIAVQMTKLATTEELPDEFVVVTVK

B1: E3 ubiquitin ligase RNF123 (protein, UniProt Q5XPI4 1-1314)
chain: MASKGAGMSFSRKSYRLTSDAEKSRVTGIVQEKLLNDYLNRIFSSSEHAPPAATSRKPLNFQNLPEHLDQLLQVDNEEEESQGQVEGRLGPSTVVLDHTGGFEGLLLVDDDLLGVIGHSNFGTIRSTTCVYKGKWLYEVLISSQGLMQIGWCTISCRFNQEEGVGDTHNSYAYDGNRVRKWNVTTTNYGKAWAAGDIVSCLIDLDDGTLSFCLNGVSLGTAFENLSRGLGMAYFPAISLSFKESVAFNFGSRPLRYPVAGYRPLQDPPSADLVRAQRLLGCFRAVLSVELDPVEGRLLDKESSKWRLRGQPTVLLTLAHIFHHFAPLLRKVYLVEAVLMSFLLGIVEKGTPTQAQSVVHQVLDLLWLFMEDYEVQDCLKQLMMSLLRLYRFSPIVPDLGLQIHYLRLTIAILRHEKSRKFLLSNVLFDVLRSVVFFYIKSPLRVEEAGLQELIPTTWWPHCSSREGKESTEMKEETAEERLRRRAYERGCQRLRKRIEVVEELQVQILKLLLDNKDDNGGEASRYIFLTKFRKFLQENASGRGNMPMLCPPEYMVCFLHRLISALRYYWDEYKASNPHASFSEEAYIPPQVFYNGKVDYFDLQRLGGLLSHLRKTLKDDLASKANIVIDPLELQSTAMDDLDEDEEPAPAMAQRPMQALAVGGPLPLPRPGWLSSPTLGRANRFLSTAAVSLMTPRRPLSTSEKVKVRTLSVEQRTREDIEGSHWNEGLLLGRPPEEPEQPLTENSLLEVLDGAVMMYNLSVHQQLGKMVGVSDDVNEYAMALRDTEDKLRRCPKRRKDILAELTKSQKVFSEKLDHLSRRLAWVHATVYSQEKMLDIYWLLRVCLRTIEHGDRTGSLFAFMPEFYLSVAINSYSALKNYFGPVHSMEELPGYEETLTRLAAILAKHFADARIVGTDIRDSLMQALASYVCYPHSLRAVERIPEEQRIAMVRNLLAPYEQRPWAQTNWILVRLWRGCGFGYRYTRLPHLLKTKLEDANLPSLQKPCPSTLLQQHMADLLQQGPDVAPSFLNSVLNQLNWAFSEFIGMIQEIQQAAERLERNFVDSRQLKVCATCFDLSVSLLRVLEMTITLVPEIFLDWTRPTSEMLLRRLAQLLNQVLNRVTAERNLFDRVVTLRLPGLESVDHYPILVAVTGILVQLLVRGPASEREQATSVLLADPCFQLRSICYLLGQPEPPAPGTALPAPDRKRFSLQSYADYISADELAQVEQMLAHLTSASAQAAAASLPTSEEDLCPICYAHPISAVFQPCGHKSCKACINQHLMNNKDCFFCKTTIVSVEDWEKGANTSTTSSAA

molecular target: ORF9B–Twin-Strep-tag (SARS-CoV-2 ORF9B, C-terminally Twin-Strep-tagged) (SARS-CoV-2) (UniProt P0DTD2); assay: proximity labelling

| Molecule | binding |
| --- | --- |
| casein kinase CSNK2A1 (from UniProt P68400 1-391) | binds |
| DNA damage checkpoint kinase CHEK2 (from UniProt O96017 1-543) | binds |
| proteasomal subunit PSMD13 (from UniProt Q9UNM6 1-376) | binds |
| glycosyltransferase POMGNT1 (from UniProt Q8WZA1 1-660) | binds |
| proteasomal subunit PSMD12 (from UniProt O00232 1-456) | binds |
| B1 | binds |

No constants are given. Whether binding was seen depends on the method and setting. In cells and extracts the contact can be indirect. These calls come from enrichment with a bait or labelling near it, and not all partners need be listed.
